The results in this text go back to paper PMC4792602.

Protein sequences, listed by entry. Tags and fused reporters are not part of them.
UniProt P11142: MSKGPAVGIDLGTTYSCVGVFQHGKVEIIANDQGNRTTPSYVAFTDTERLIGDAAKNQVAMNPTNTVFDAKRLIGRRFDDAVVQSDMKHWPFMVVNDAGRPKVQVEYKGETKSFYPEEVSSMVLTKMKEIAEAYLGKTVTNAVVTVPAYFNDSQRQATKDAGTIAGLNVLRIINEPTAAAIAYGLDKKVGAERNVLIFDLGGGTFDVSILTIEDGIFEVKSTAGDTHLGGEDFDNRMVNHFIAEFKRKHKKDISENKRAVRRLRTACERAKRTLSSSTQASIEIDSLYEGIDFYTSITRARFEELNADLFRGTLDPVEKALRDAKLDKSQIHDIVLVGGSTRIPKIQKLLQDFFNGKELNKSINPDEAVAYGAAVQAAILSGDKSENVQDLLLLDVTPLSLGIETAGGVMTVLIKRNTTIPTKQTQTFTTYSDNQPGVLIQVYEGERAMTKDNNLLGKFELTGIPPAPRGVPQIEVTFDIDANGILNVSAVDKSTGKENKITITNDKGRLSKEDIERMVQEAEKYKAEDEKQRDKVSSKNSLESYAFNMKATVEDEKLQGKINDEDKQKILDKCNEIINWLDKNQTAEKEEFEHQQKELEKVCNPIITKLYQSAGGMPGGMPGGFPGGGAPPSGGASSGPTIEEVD
UniProt P68104: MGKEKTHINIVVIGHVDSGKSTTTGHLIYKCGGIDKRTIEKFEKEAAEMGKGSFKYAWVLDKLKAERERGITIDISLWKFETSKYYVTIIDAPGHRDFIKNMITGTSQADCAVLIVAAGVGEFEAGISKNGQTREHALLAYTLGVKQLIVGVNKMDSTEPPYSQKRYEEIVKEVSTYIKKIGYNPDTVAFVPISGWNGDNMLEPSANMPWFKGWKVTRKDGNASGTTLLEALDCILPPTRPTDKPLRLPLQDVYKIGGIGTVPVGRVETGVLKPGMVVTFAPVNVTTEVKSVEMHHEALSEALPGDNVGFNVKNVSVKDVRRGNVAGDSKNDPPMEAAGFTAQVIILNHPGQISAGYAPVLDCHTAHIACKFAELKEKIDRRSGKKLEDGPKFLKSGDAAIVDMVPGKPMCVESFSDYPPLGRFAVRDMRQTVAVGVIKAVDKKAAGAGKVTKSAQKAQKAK

In assay [1] the target is Hsc70 (human (endogenous in 2fTGH)) (UniProt P11142). Nature of the assay: co-IP; IP with anti-PKM2, anti-HSPA1A, anti-Hsc70 or anti-EEF1A1 from lysates of Flag-HA-TG2 2fTGH cells; steady state, 4 h starvation or MG132 for 4 h; lysis buffer 10 mM Tris-HCl pH 8.0, 150 mM NaCl, 10% glycerol, 0.5% NP40.
In assay [2] the target is EEF1A1 protein [Homo sapiens] (human) (UniProt P68104). Described as above.

No constants are given. Whether binding was seen depends on the method and setting. Binding seen in cells or lysates may run through a third protein. Some results given as binding are weak or reduced against the parent protein; the word gives no strength. Sequences can lack the tags named with a protein.

B1: Flag-hemagglutinin (HA)-tagged transglutaminase type 2 (enzyme, UniProt P21980 1-687)
chain: MAEELVLERCDLELETNGRDHHTADLCREKLVVRRGQPFWLTLHFEGRNYEASVDSLTFSVVTGPAPSQEAGTKARFPLRDAVEEGDWTATVVDQQDCTLSLQLTTPANAPIGLYRLSLEASTGYQGSSFVLGHFILLFNAWCPADAVYLDSEEERQEYVLTQQGFIYQGSAKFIKNIPWNFGQFEDGILDICLILLDVNPKFLKNAGRDCSRRSSPVYVGRVVSGMVNCNDDQGVLLGRWDNNYGDGVSPMSWIGSVDILRRWKNHGCQRVKYGQCWVFAAVACTVLRCLGIPTRVVTNYNSAHDQNSNLLIEYFRNEFGEIQGDKSEMIWNFHCWVESWMTRPDLQPGYEGWQALDPTPQEKSEGTYCCGPVPVRAIKEGDLSTKYDAPFVFAEVNADVVDWIQQDDGSVHKSINRSLIVGLKISTKSVGRDEREDITHTYKYPEGSSEEREAFTRANHLNKLAEKEETGMAMRIRVGQSMNMGSDFDVFAHITNNTAEEYVCRLLLCARTVSYNGILGPECGTKYLLNLNLEPFSEKSVPLCILYEKYRDCLTESNLIKVRALLVEPVINSYLLAERDLYLENPEIKIRILGEPKQKRKLVAEVSLQNPLPVALEGCTFTVEGAGLTEEQKTVEIPDPVEAGEEVKVRMDLLPLHMGLHKLVVNFESDKLKAVKGFRNVIIGPA
As to B1, the binding entry in assay [1] and in assay [2] was “binds” in each case.
